# Reference: US4499087A, “7-Phenyl-7-phenoxymethyl-hexahydro-1,4-oxazepines and their use” (BASF Aktiengesellschaft, priority 1982, dated 1985)
# System: norepinephrine uptake
# Assay: Inhibition of norepinephrine uptake in rat brain synaptosomes (hippocampus, 3H norepinephrine)
# Assay type: biochemical
# Conditions: ratio of the two IC50 values of Table 1
# Method: The action mechanism of a group of therapeutically much used antidepressants must be regarded as being the inhibition of the neuronal uptake of transmitter substances (norepinephrine and/or serotonin). These properties were utilized in biological test models for characterizing potential antidepressants (inhibition of neurotransmitter uptake in rat brain synaptosomes):
# Hippocampus and cortex from rat brain were prepared, and were homogenized in 0.32M sucrose solution. By means of differential centrifuging, synaptosomes were obtained, and these were suspended in buffer solution. The synaptosomes are able actively to take up added neurotransmitter substances (eg. norepinephrine or serotonine) from the surrounding medium. It is possible to antagonize this process by uptake inhibitors, as a function of concentration. Various concentrations of the test substances were added to the synaptosomes, and the mixtures were then incubated with ^3 H norepinephrine (hippocampus) or ^3 H serotonin (cortex) at 37° C. The substrate concentration was about 10 nM. The uptake was terminated by diluting the mixture with ice-cooled buffer solution, after which the synaptosomes were separated off by centrifuging and the ^3 H activity in the sediment was measured. A blank value was determined by incubation at 0° C.
# From the inhibitory values determined for various inhibitor concentrations compared with the control, the mean inhibitory concentration (IC50) was calculated by linear regression following logit-log transformation.
row,Compound,Quotient IC50 serotonin / IC50 Norepinephrine
1,"COc1ccccc1OCC1(c2ccccc2)CCNCCO1.Cl (centres unmarked) [Example 3, 7-phenyl-7-(2-methoxyphenoxymethyl)-hexahydro-1,4-oxazepine hydrochloride]",32.0
2,"COc1ccc(OCC2(c3ccccc3)CCNCCO2)cc1.Cl (centres unmarked) [Example 5, 7-phenyl-7-(4-methoxyphenoxymethyl)-hexahydro-1,4-oxazepine hydrochloride]",1.2
3,"Clc1ccc(OCC2(c3ccccc3)CCNCCO2)cc1 (centres unmarked) [Example 4, 7-phenyl-7-(4-chlorophenoxymethyl)-hexahydro-1,4-oxazepine]",0.53
4,"Cl.Clc1ccccc1OCC1(c2ccccc2)CCNCCO1 (centres unmarked) [Example 2, 7-phenyl-7-(2-chlorophenoxymethyl)-hexahydro-1,4-oxazepine hydrochloride]",164.0
5,"CN(C)CCCN1c2ccccc2CCc2ccccc21 [Imipramine, reference compound]",9.3
6,CN1CCOC(COc2ccccc2Cl)(c2ccccc2)CC1 (centres unmarked) [Example 7],3.1
7,"Cl.c1ccc(OCC2(c3ccccc3)CCNCCO2)cc1 (centres unmarked) [Example 1, 7-phenyl-7-phenoxymethyl-hexahydro-1,4-oxazepine hydrochloride]",12.7

# Same assay, conditions: relative to imipramine
row,Compound,times more effective in inhibiting norepinephrine uptake (compared with imipramine)
1,"Cl.Clc1ccccc1OCC1(c2ccccc2)CCNCCO1 (centres unmarked) [Example 2, 7-phenyl-7-(2-chlorophenoxymethyl)-hexahydro-1,4-oxazepine hydrochloride]",5 times
